In patent US20260207707A1 (UNIVERSITY OF CHICAGO, published 2026):
No constants are given. Whether binding was seen depends on the method and setting. In cells and extracts the contact can be indirect. Some entries that bind do so weakly or less than the wild type.

Biological target: T1, neutrophil elastase (ELANE) (human, UniProt P08246 30-247, limits assumed)
T1 construct: Purified ELANE; In the co-immunoprecipitation it is the native protein in human PMN media; also called human ELANE
T1 sequence (looked up): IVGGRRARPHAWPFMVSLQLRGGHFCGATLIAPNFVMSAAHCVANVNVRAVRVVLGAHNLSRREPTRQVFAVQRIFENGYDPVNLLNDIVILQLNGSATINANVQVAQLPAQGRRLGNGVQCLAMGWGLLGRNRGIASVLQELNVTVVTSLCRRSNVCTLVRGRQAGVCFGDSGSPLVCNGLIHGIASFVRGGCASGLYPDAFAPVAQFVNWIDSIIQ
Experiment: co-immunoprecipitation from human PMN media

B1: eosinophil cationic protein (ECP) (other, human, UniProt P12724 28-160, looked up)
chain: RPPQFTRAQWFAIQHISLNPPRCTIAMRAINNYRWRCKNQNTFLRTTFANVVNVCGNQSIRCPHNRTLNNCHRSRFRVPLLHCDLINPGAQNISNCTYADRPGRRFYVVACDNRDPRDSPRYPVVPVHLDTTI
notes: Identified by proteomics in media conditioned by human PMNs
B1 was tested, and the binding was “binds”.
